Results from US20150238483A1, “Traitement des neuronopathies motrices” (CENTRE NATIONAL DE LA RECHERCHE SCIENTIFIQUE- CNRS, priority 2012, published 2015).
Structures can show the parent of a compound that is named as a salt.

Tested on: immortalized SMA fibroblasts
Assay: Distribution of the SMN protein to Cajal bodies (CBs) in immortalized SMA fibroblasts, immunolabeling, cells counted
Type: cell-based, human
Conditions: immortalized type I line; for EC50: Homo sapiens, Fibroblast, dose-response on CBs with SMN
Procedure: This immortalization is described in the publication Lefebvre S, Burlet P, Viollet L, Bertrandy S, Huber C, Belser C and Munnich A. A novel association of the SMN protein with major non-ribosomal nucleolar proteins and its implication in spinal muscular atrophy. Hum Mol Genet (2002) 11 (9): 1017-1027.
The blockers of the invention are commercially available (for example from Sigma-Aldrich) and are sold in 96-well plates, at 2 milligrams per molecule per well to be dissolved in 1 ml of DMSO.
In order to determine whether the calcium channel blockers exerted a positive effect, the inventors counted the cells which had the SMN protein located in the CBs out of 100 cells randomly selected for each experiment.
This experiment was repeated three times.
A value of induction by a factor equal to 1 was arbitrarily assigned to DMSO.
In order to evaluate the relationship between the concentration (dose) and the effect (response) on the CBs of the immortalized SMA cells, the inventors constructed a dose-response curve for each of the molecules.

Row | SMILES | EC50 | Dilution at EC50 (dilution relative to 2 μg/ml)
1 | CCCCc1oc2ccccc2c1C(=O)c1cc(I)c(OCCN(CC)CC)c(I)c1 [Amiodarone hydrochloride, (2-butyl-3-benzofuranyl)[4-[2-(diethylamino)ethoxy]-3,5-diiodophenyl]methanone hydrochloride] | 0.06 ± 0.026 µM | 1/50
2 | Fc1ccc(C(c2ccc(F)cc2)N2CCN(C/C=C/c3ccccc3)CC2)cc1 [Flunarizine dihydrochloride, flunarizine dihydrochloride] | ~0.08 µM | 
